PubChem BioAssay AID1671195 | Yale University | 2021
Aim: 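Knockdowns that increase or decrease uptake of fluorescent LDL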 (primary screen). Cells: human Huh7 hepatoma cells. Reagents: siRNA pool against human genes, 18 nM. Time to read-out: about 2 to 2.5 days of knockdown, then 8 h LDL uptake. Challenge: DiI-labelled LDL at 30 µg/ml for 8 h, in lipoprotein-deficient serum medium. Measurement: 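Per-cell DiI-LDL intensity by automated imaging; well means scaled to the plate median and given as a robust z-score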. Reading the numbers: robust z-score: higher = more LDL uptake after knockdown. Call rule: 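a gene counts as active if at least two replicate z-scores exceed ±2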.
In all, the deposit lists about 22,000 reagents; this is an unselected part. About 1,510 of all reagents (6.9%) count as active. 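Active includes knockdowns raising or lowering LDL uptake; positive z-scores mean more uptake, negative mean less.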 A number with no mark means an inactive call.

| Target gene | robust z-score, replicate 1 | robust z-score, replicate 2 | robust z-score, replicate 3 |
| --- | --- | --- | --- |
| H4C9 | -0.095 | -1.41 | -0.548 |
| AEBP2 | 1.36 | 1.67 | 0.945 |
| CCL13 | -0.237 | 0.14 | -0.304 |
| GID4 | -0.655 | -1.18 | -1.2 |
| LRP1 | -0.0428 | -0.0316 | -0.179 |
| LINC01124 | 0.163 | 0.362 | -0.133 |
| DNALI1 | 0.985 | 1.44 | 0.679 |
| CDC5L | -1.22 | -0.0691 | -0.449 |
| ZNF771 | -0.143 | -1.06 | 0.492 |
| RHPN1-AS1 | -1.93 | -1.31 | -1.66 |
| ATAD2 | -0.471 | -0.301 | 0.152 |
| MROH7 | -1.42 | -1.47 | -1.48 |
| RGMA | -0.944 | -1.87 | -1.59 |

4 consecutive entries from above, for reference:
| Target gene | robust z-score, replicate 1 | robust z-score, replicate 2 | robust z-score, replicate 3 |
| --- | --- | --- | --- |
| RHPN1-AS1 | -1.93 | -1.31 | -1.66 |
| ATAD2 | -0.471 | -0.301 | 0.152 |
| MROH7 | -1.42 | -1.47 | -1.48 |
| RGMA | -0.944 | -1.87 | -1.59 |

More entries follow.
| Target gene | robust z-score, replicate 1 | robust z-score, replicate 2 | robust z-score, replicate 3 |
| --- | --- | --- | --- |
| LOC440171 (retired record) | -1.66 | -2.03 | -1.44 |
| ANKRD30BP3 | 1.55 | 1.88 | 1.54 |
| MTHFD2L | -0.286 | -0.442 | -0.868 |
| TTC3 | 1.02 | 1.01 | 0.668 |
| TREM1 | -0.86 | -1.34 | -0.922 |
| TBX10 | 0.0846 | 1.63 | 0.336 |
| LOC100288254 | 2.2 | 0.781 | 1.83 |
| RAMP3 | -1.21 | -1.45 | -1.39 |
| LOC388790 (retired record) | 0.168 | -0.0686 | 0.257 |
| ZNF852 | -0.542 | -0.392 | -0.381 |
| TMEM129 | -0.151 | -1.14 | -0.646 |
| PIGM | 0.866 | -0.301 | -0.193 |
| LOC441778 (retired record) | 1.08 | 1.47 | 1.44 |
| TTLL1 | -1.04 | -1.58 | -1.62 |
| AOC2 | -1.05 | -0.44 | -0.549 |
